PubChem BioAssay AID1259288 | Sanger Institute, 2017
Test: 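Verify that silencing candidate genes makes colorectal cancer cells more drug sensitive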 (follow-up of hits with single siRNAs). Cells: HT29 human colorectal cancer cells. Reagent: single siRNA against human genes. Treatment: anchor drugs BYL719 (1 µM), cetuximab (5 µg/ml) or trametinib (10 nM), or DMSO vehicle; each drug dosed to cause only modest loss of viability on its own. Read-out: 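Synergy score comparing combined siRNA and drug against siRNA alone and drug alone, and viability averaged over replicates and normalised to control pool 2 (non-targeting)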. Reading the numbers: synergy score with BYL719 and synergy score with trametinib and synergy score with cetuximab: higher = stronger combined killing than expected from each alone. Rule for the call: 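Hit when synergy for any of BYL719, cetuximab and trametinib exceeds 0.10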.
Here is a random part of 160 reagents tested. In the full data, 7 (4.4%) got an active call. 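Active calls arise only from BYL719 or trametinib; no cetuximab synergy went beyond 0.10; drug doses chosen to have mild effect alone.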 Reagents against one gene are numbered here. Not all columns of the deposit are shown. Not given: the amount of reagent, the time to read-out.

PAK1 #1 → synergy score with BYL719 = -0.0815; synergy score with trametinib = 0.0254; synergy score with cetuximab = -0.153; Outcome = inactive
PAK1 #2 → synergy score with BYL719 = -0.209; synergy score with trametinib = 0.00917; synergy score with cetuximab = -0.206; Outcome = inactive
PAK1 #3 → synergy score with BYL719 = -0.0219; synergy score with trametinib = 0.0266; synergy score with cetuximab = -0.108; Outcome = inactive
PAK1 #4 → synergy score with BYL719 = -0.23; synergy score with trametinib = -0.0389; synergy score with cetuximab = -0.171; Outcome = inactive
MAPKAPK2 #1 → synergy score with BYL719 = 0.185; synergy score with trametinib = -0.000595; synergy score with cetuximab = 0.0467; Outcome = active
MAPKAPK2 #2 → synergy score with BYL719 = 0.0907; synergy score with trametinib = -0.137; synergy score with cetuximab = -0.0468; Outcome = inactive
MAPKAPK2 #3 → synergy score with BYL719 = -0.0186; synergy score with trametinib = -0.0397; synergy score with cetuximab = 0.097; Outcome = inactive
MAPKAPK2 #4 → synergy score with BYL719 = -0.0363; synergy score with trametinib = -0.0321; synergy score with cetuximab = -0.0704; Outcome = inactive
PIM1 #1 → synergy score with BYL719 = 0.0405; synergy score with trametinib = 0.0744; synergy score with cetuximab = -0.141; Outcome = inactive
PIM1 #2 → synergy score with BYL719 = -0.0106; synergy score with trametinib = 0.00741; synergy score with cetuximab = -0.0365; Outcome = inactive
PIM1 #3 → synergy score with BYL719 = -0.127; synergy score with trametinib = -0.054; synergy score with cetuximab = -0.0525; Outcome = inactive
PIM1 #4 → synergy score with BYL719 = 0.0167; synergy score with trametinib = 0.0239; synergy score with cetuximab = 0.0492; Outcome = inactive
AK2 #1 → synergy score with BYL719 = -0.172; synergy score with trametinib = -0.111; synergy score with cetuximab = -0.243; Outcome = inactive
AK2 #2 → synergy score with BYL719 = -0.173; synergy score with trametinib = 0.023; synergy score with cetuximab = -0.155; Outcome = inactive
AK2 #3 → synergy score with BYL719 = -0.249; synergy score with trametinib = -0.00361; synergy score with cetuximab = -0.0599; Outcome = inactive
AK2 #4 → synergy score with BYL719 = -0.0883; synergy score with trametinib = 0.143; synergy score with cetuximab = -0.116; Outcome = active
KCNH8 #1 → synergy score with BYL719 = -0.104; synergy score with trametinib = -0.0202; synergy score with cetuximab = -0.217; Outcome = inactive
KCNH8 #2 → synergy score with BYL719 = -0.122; synergy score with trametinib = 0.0811; synergy score with cetuximab = -0.099; Outcome = inactive
KCNH8 #3 → synergy score with BYL719 = -0.239; synergy score with trametinib = -0.05; synergy score with cetuximab = -0.105; Outcome = inactive
KCNH8 #4 → synergy score with BYL719 = -0.0694; synergy score with trametinib = -0.0284; synergy score with cetuximab = -0.127; Outcome = inactive
PRAG1 #1 → synergy score with BYL719 = -0.0342; synergy score with trametinib = -0.0211; synergy score with cetuximab = -0.15; Outcome = inactive
PRAG1 #2 → synergy score with BYL719 = 0.0355; synergy score with trametinib = 0.0707; synergy score with cetuximab = -0.169; Outcome = inactive
PRAG1 #3 → synergy score with BYL719 = 0.0136; synergy score with trametinib = -0.063; synergy score with cetuximab = -0.0404; Outcome = inactive
PRAG1 #4 → synergy score with BYL719 = 0.0302; synergy score with trametinib = -0.0457; synergy score with cetuximab = -0.0267; Outcome = inactive

3 entries from above in another layout:
{"gene":"PAK1","siRNA no.":4,"synergy score with BYL719":-0.23,"synergy score with trametinib":-0.0389,"synergy score with cetuximab":-0.171,"Outcome":"inactive"}
{"gene":"MAPKAPK2","siRNA no.":1,"synergy score with BYL719":0.185,"synergy score with trametinib":-0.000595,"synergy score with cetuximab":0.0467,"Outcome":"active"}
{"gene":"MAPKAPK2","siRNA no.":2,"synergy score with BYL719":0.0907,"synergy score with trametinib":-0.137,"synergy score with cetuximab":-0.0468,"Outcome":"inactive"}
